# PubChem BioAssay AID504795 – Drosophila RNAi Screening Center – 2011
# Assay: 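Knock-downs causing abnormal branching, bundling, swelling or growth of cultured neurons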 (primary screen)
# Cell system: primary Drosophila neurons and glia
# Reagents: long dsRNA against Drosophila genes, 250 ng dsRNA per well
# Timing: one week
# Detection: 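GFP-labelled neurons and glia imaged live by automated microscope one week after 250 ng dsRNA per well; morphology scored by eye as descriptive phenotype terms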
# This is not the whole library: the list holds selected reagents. 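Every listed dsRNA shows some phenotype; how reagents were selected for listing is not stated.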 Names joined by + are all predicted targets of the reagent.
The first 4 entries, to show the layout:
gene knocked down,amplicon,"phenotype seen, replicate 1","phenotype seen, replicate 2"
CG8051,DRSC20077,fewer cells,
CG42540,DRSC08593,too many neurite branches,
CG34338,DRSC17535,sheet-like cell extensions,
bves,DRSC20554,sheet-like cell extensions,

Main list, from the first entry:
gene knocked down,amplicon,"phenotype seen, replicate 1","phenotype seen, replicate 2"
CG8051,DRSC20077,fewer cells,
CG42540,DRSC08593,too many neurite branches,
CG34338,DRSC17535,sheet-like cell extensions,
bves,DRSC20554,sheet-like cell extensions,
Rrp6,DRSC16223,axon bundles split apart,
wtrw,DRSC15278,neurite branching,
EMC4,DRSC11638,abnormal cell clusters,
Prm,DRSC11255,abnormal cell clusters,
BaraA1 + BaraA2,DRSC05417,abnormal cell clusters,
RpLP1,DRSC22145,axon bundles split apart,sheet-like cell extensions
CG9993,DRSC04599,reduced axon outgrowth,
DIP-beta,DRSC20489,axon bundles split apart,
CG16815,DRSC02521,abnormal cell clusters,
Dbx,DRSC08270,beaded; swollen axons,
Dys,DRSC15260,sheet-like cell extensions,
CG17839,DRSC10291,too many neurite branches,
dwg,DRSC18766,too many neurite branches,
CG34196,DRSC05704,axon bundles split apart,
CG13739,DRSC06410,axon bundles split apart,
Gdap2,DRSC06789,axon bundles split apart,
Gdap2,DRSC06790,axon bundles split apart,
N,DRSC18685,too many neurite branches,
CG1909,DRSC17150,too many neurite branches,
epsilonCOP,DRSC02003,too many neurite branches,
mat,DRSC08376,axon bundles split apart,
Syngr,DRSC06003,fewer cells,
Cyp6a2,DRSC05014,abnormal cell clusters,
CG17154,DRSC10253,abnormal cell clusters,
Bet5,DRSC14600,sheet-like cell extensions,
Alp2,DRSC04354,reduced axon outgrowth,
Pomp,DRSC03201,abnormal cell clusters,
Sgt1,DRSC16519,abnormal cell clusters,
mRpL19,DRSC16367,axon bundles split apart,
Ank2,DRSC08894,beaded; swollen axons,
Zasp52,DRSC06269,abnormal cell clusters,
Ir10a,DRSC18891,abnormal cell clusters,
ZnT77C,DRSC11766,axon bundles split apart,
prg,DRSC03324,axon bundles split apart,
Samtor,DRSC04390,too many neurite branches,
fru,DRSC16953,axon bundles split apart,
CG12065,DRSC17799,axon bundles split apart,
sphinx2,DRSC22188,beaded; swollen axons,
Elp6,DRSC16571,beaded; swollen axons,
CG10725,DRSC09788,too many neurite branches,
CG13086,DRSC02190,abnormal cell clusters,
RpL36,DRSC18708,weaker green signal,
Spt20,DRSC10280,too many neurite branches,
Cpr30B,DRSC02728,too many neurite branches,
CG9875,DRSC04585,axon bundles split apart,
CG13838,DRSC14688,too many neurite branches,
CG10543,DRSC04081,axon bundles split apart,
loaf,DRSC09130,too many neurite branches,
CG14115,DRSC10118,sheet-like cell extensions,axon bundles split apart
Sec61alpha,DRSC03256,cell fragments present,
Drsl5,DRSC08159,sheet-like cell extensions,
CG9733,DRSC16549,cell fragments present,
stumps,DRSC15332,axon bundles split apart,
Nadk2,DRSC07072,axon bundles split apart,
CG13992,DRSC02324,cell fragments present,
CG15773,DRSC18079,abnormal cell clusters,
CG10300,DRSC14225,too many neurite branches,
ImpE3,DRSC16716,abnormal cell clusters,
Brd7-9,DRSC03017,abnormal cell clusters,
Jon25Bii,DRSC03114,beaded; swollen axons,
dpr3,DRSC21369,abnormal cell clusters,
swm,DRSC02012,too many neurite branches,
swm,DRSC21831,axon bundles split apart,too many neurite branches
fand,DRSC06967,beaded; swollen axons,
CG11076,DRSC17197,axon bundles split apart,
Kaz1-ORFB + Kaz1-ORFA,DRSC08669,too many neurite branches,
Lerp,DRSC14750,axon bundles split apart,
Lerp,DRSC14751,abnormal cell clusters,
lft,DRSC02236,too many neurite branches,
AGO2,DRSC09999,too many neurite branches,sheet-like cell extensions
